# Laboratory results taken from PubChem BioAssay AID540256 (National Center for Advancing Translational Sciences (NCATS), 2011).
# Among all 300,000 compounds or so, about 3,700 (1.2%) were called active. Inconclusive means that the source gave no clear call. Such entries were picked first, then a sample of the others. The call rests on the fitted dose curve; tested in HEK293 cells. Where the call is inconclusive, the potency comes from a doubtful curve fit.
# Assay: qHTS for Inhibitors of binding or entry into cells for Lassa Virus; further: nearly all actives have a fitted effect of over 50% in size
# Settings: Lassa virus pseudotype entry inhibition, cell reporter; series mostly up to 37.9 µM
# Potency means the concentration at half of the fitted maximal effect.
row,SMILES,Potency
1,CCOc1ccccc1-n1c(O)c(C=Nc2ccc(N(CC)CC)cc2)c(=O)[nH]c1=O,"inconclusive: 5.01 µM [inhibitor, partial curve]"
2,CSc1ncccc1C(=O)OCCCC(=O)c1ccc(F)cc1,inactive
3,Cc1cccc(NC(=O)CSc2nnc(NC(=O)c3ccco3)s2)c1,inactive
4,O=C(/C=C/c1cn(CC(O)CN2CCCCCC2)c2ccccc12)c1ccc(Br)cc1 (stereo not given),"inconclusive: 8.91 µM [inhibitor, single point]"
5,O=C(N/N=C/c1cccs1)c1n[nH]c2c1CCC2,"inconclusive: 7.94 µM [inhibitor, partial curve]"
6,C=CCC(CC=C)(CNC(=O)C(=O)Nc1ccc(C(=O)OCC)cc1)c1ccccc1,"inconclusive: 2.24 µM [activator, partial curve, poor fit]"
7,C=CCOC(=O)C1=C(C)NC(C)=C(C(=O)OCC=C)C1c1cccs1,"inconclusive: 22.4 µM [inhibitor, single point]"
8,COc1ccc(NC(=O)C(=O)NCCC2CCCCN2S(=O)(=O)c2cccs2)cc1 (stereo not given),"inconclusive: 1.12 µM [inhibitor, full curve, poor fit]"
9,CSc1ncc(C(=O)Nc2cc(Cl)ccc2C)c(-c2ccccc2)n1,inactive
10,Oc1ccc(N2CCN(c3ncnc4sc(-c5ccccc5)cc34)CC2)cc1,"inconclusive: 8.91 µM [inhibitor, partial curve, poor fit]"
11,O=C(c1cccn2c(=O)c3ccc(Cl)cc3nc12)N1CCN(Cc2ccc3c(c2)OCO3)CC1,inactive
12,CCCS(=O)(=O)N1CCC(C(=O)NCCC(C)C)CC1,inactive
13,CCOc1ccc(-n2nc(CO)c(C(=O)NCc3cccc(OC)c3)n2)cc1,"inconclusive: 1.26 µM [inhibitor, full curve]"
14,O=C(CSc1ncnc2nc[nH]c12)N1CCN(c2ccc(Cl)cc2)CC1,"inconclusive: 29.1 µM [inhibitor, single point]"
15,O=C(CCC1N=C2c3ccccc3N=C(SCc3ccc(F)cc3)N2C1=O)NC1CCCCC1 (stereo not given),inactive
16,COc1cc2cc(CNc3ccccc3)c(=O)n(CC(=O)Nc3cc(C)cc(C)c3)c2cc1OC,inactive
17,COC(=O)c1ccc(NC(=O)COC(=O)CSc2nc(C)cc(C)n2)cc1,"inconclusive: 3.66 µM [inhibitor, partial curve, poor fit]"
18,COc1ccc(-c2cc(=O)oc3c4c(ccc23)OCN(Cc2cccc(OC)c2)C4)cc1,inactive
19,CN(C)CCNC(=O)c1sc2cccc(F)c2c1Cl,"inconclusive: 5.62 µM [inhibitor, single point]"
20,O=C(NC1=NCCS1)c1ccc(Cl)c(S(=O)(=O)N2CCCCCC2)c1,inactive
21,O=C(CCn1c(=O)[nH]c2ccsc2c1=O)N1CCc2ccccc2C1,"inconclusive: 4.11 µM [activator, single point]"
22,Cc1cc(C)c2c(n1)SCCN2C(=O)Nc1ccc(C(=O)Nc2ccc(C(C)C)cc2)cc1,"inconclusive: 25.1 µM [activator, single point]"

row,SMILES,Potency
1,O=C(Nc1ccc2c(c1)nc1n2CCSC1)c1ccco1,"inconclusive: 4.61 µM [inhibitor, full curve]"
2,Cc1ccccc1OCC(=O)O/N=C(\N)c1ccncc1,inactive
3,O=C(Nc1ccccn1)c1ccc(Cl)c(S(=O)(=O)N2CCCC2)c1,inactive
4,CCn1c(CNc2cccc(Cl)c2)nnc1SCc1ccccc1,"inconclusive: 6.51 µM [activator, single point]"
5,CC1CC(C)CN(CCCNC(=O)c2ccc3c(c2)NC(=O)C(N2CCCCC2)S3)C1 (stereo not given),"inconclusive: 20 µM [inhibitor, single point]"
6,O=C(CSc1nc(-c2ccc(F)cc2)cs1)NC(=O)NCc1ccco1,"inconclusive: 18.3 µM [inhibitor, partial curve, poor fit]"
7,FC(F)(F)c1cccc(-c2cc(C3CCNCC3)[nH]n2)c1,"inconclusive: 35.5 µM [inhibitor, single point]"
8,COc1ccc(C(=O)c2c(C)oc3ccc(O)c(CN4CCOCC4)c23)cc1,"inconclusive: 18.3 µM [inhibitor, partial curve, poor fit]"
9,CCN(CCN(C)C)C(=O)C1CCN(S(=O)(=O)c2c(C)noc2/C=C/c2ccccc2F)CC1,"inconclusive: 35.5 µM [inhibitor, single point]"
10,CCOC(=O)c1ccc(NC(=O)c2ccc(C)c(S(=O)(=O)N3CCOCC3)c2)cc1,"inconclusive: 11.2 µM [inhibitor, partial curve, poor fit]"
11,CC1CCN(C(=O)C2CCN(C(=O)c3cc4sccc4n3Cc3ccc(F)cc3)CC2)CC1,"inconclusive: 6.51 µM [inhibitor, partial curve, poor fit]"
12,COc1ccc(OC)c(NC(=S)N(CCc2c(C)[nH]c3ccccc23)Cc2cccs2)c1,"inconclusive: 20.6 µM [inhibitor, partial curve, poor fit]"
13,C[C@]12CCC3C(CC[C@H]4C[C@@H](O)CC[C@]34C)C1CC[C@@H]2OC(=O)[C@H](N)CCCCN (stereo not given in full),"inconclusive: 35.5 µM [inhibitor, single point]"
14,c1cncc(CNc2cccc(-c3nc4ccccc4[nH]3)c2)c1,"inconclusive: 2.51 µM [activator, partial curve, poor fit]"
15,CO/N=C/C(C#N)=C/c1cc(C(=O)c2ccc(F)cc2)cn1C,"inconclusive: 6.51 µM [inhibitor, partial curve]"
16,COc1cc(NC(=O)c2ccc(-n3cnc4cccnc43)cc2)cc(OC)c1,inactive
17,Cc1ccc(N=Nc2c(N)n(-c3ccccc3)[nH]c2=O)cc1,"inconclusive: 2.24 µM [activator, partial curve]"
18,O=C(O)c1cccc(N/N=C/c2ccc(OC(F)(F)F)cc2)c1,"inconclusive: 1.58 µM [inhibitor, full curve, poor fit]"
19,Cc1ccc(SCC(=O)NCc2ccc(F)cc2)cc1,"inconclusive: 35.5 µM [inhibitor, single point]"
20,COc1ccc(/C(O)=C2/C(=O)C(=O)N(CCCC(=O)O)C2c2ccc(OC)c(OC)c2)cc1 (stereo not given),"inconclusive: 13 µM [activator, partial curve, poor fit]"
21,COc1cc(/C=N/Nc2ccc(S(N)(=O)=O)cc2)cc(OC)c1OC,"inconclusive: 11.2 µM [inhibitor, partial curve, poor fit]"
22,CCOC(=O)c1ccc(NC(=O)c2nn(CC)cc2Br)cc1,"inconclusive: 4.61 µM [activator, full curve, poor fit]"

# Structures above that contain bromine (2):
row,SMILES,Potency
4,O=C(/C=C/c1cn(CC(O)CN2CCCCCC2)c2ccccc12)c1ccc(Br)cc1 (stereo not given),"inconclusive: 8.91 µM [inhibitor, single point]"
22,CCOC(=O)c1ccc(NC(=O)c2nn(CC)cc2Br)cc1,"inconclusive: 4.61 µM [activator, full curve, poor fit]"

# (further entries)

row,SMILES,Potency
1,N#CC(c1ccc(F)cc1)c1ccc(C(=O)c2ccc(F)cc2)cc1 (stereo not given),"inconclusive: 5.62 µM [inhibitor, full curve]"
2,C=C(CCC(=O)c1ccccc1)C(=O)c1ccccc1,"inconclusive: 35.5 µM [inhibitor, single point]"
3,CCn1c(NCc2cccs2)nc2ccccc21,inactive
4,CCCCc1nc2ccccc2n1CC(=O)N(COCC)c1c(C)cccc1CC,"inconclusive: 2 µM [inhibitor, partial curve, poor fit]"
5,Cc1ccc(NC(=O)C2CCC(CNS(=O)(=O)c3ccc4c(c3)CCCC(=O)N4)CC2)c(C)c1 (stereo not given),inactive
6,CCOC(=O)c1ccc(NC(=O)CSc2nc3c([nH]c4ccccc43)c(=O)n2C)cc1,"inconclusive: 22.4 µM [inhibitor, single point]"
7,Cc1cn2c(=O)cc(COc3ccccc3NC(=O)c3ccc(Cl)cc3)nc2s1,inactive
8,CN(CC(=O)Nc1ccc(F)cc1)C(=O)Cn1nnc(-c2ccccc2)n1,inactive
9,Cc1cccc(C(=O)N2CCC(=O)N(C(COCc3cccc(C(F)(F)F)c3)Cc3ccccc3)CC2)c1 (stereo not given),"inconclusive: 14.6 µM [inhibitor, partial curve]"
10,O=C(Nc1cc(S(=O)(=O)N2CCCCC2)ccc1Cl)c1ccccc1NS(=O)(=O)c1ccc(F)cc1,active: 3.55 µM
11,CCNc1sc(C(=O)c2cccs2)c(N)c1-c1nc2ccccc2s1,"inconclusive: 35.5 µM [inhibitor, single point]"
12,Cc1ccc(C(=O)N/C(=C\c2ccc(-c3ccc(Br)cc3)o2)C(=O)NC2CCS(=O)(=O)C2)cc1 (stereo not given),"inconclusive: 3.55 µM [inhibitor, partial curve, poor fit]"
13,O=C(Cc1ccc(F)cc1)Nc1cccc(S(=O)(=O)N2CCCC2)c1,"inconclusive: 11.2 µM [inhibitor, partial curve, poor fit]"
14,Cc1ccc(OC/C(=N\O)C(C)(C)C)c([N+](=O)[O-])c1,"inconclusive: 35.5 µM [inhibitor, single point]"
15,CCCCc1nc(S(=O)(=O)c2ccc(Cl)cc2)c(N2CCOCC2)o1,inactive
16,CCCN(CCC)S(=O)(=O)c1ccc(C(=O)Nc2nc3c(s2)CCc2ccccc2-3)cc1,"inconclusive: 22.4 µM [inhibitor, single point]"
17,Cc1cc(N2CCC(C(=O)Nc3ccc(Cl)cc3)CC2)n2nc(C)c(-c3ccc(Cl)cc3)c2n1,inactive
18,O=C(O)CSc1nnc(-c2ccc(O)cc2)o1,"inconclusive: 5.62 µM [activator, partial curve]"
19,O=C(N/N=C/c1cc([N+](=O)[O-])ccc1O)c1ccc(COc2ccc3c(c2)CCC3)o1,"inconclusive: 10 µM [inhibitor, single point]"
20,O=C(c1ccco1)N1CCN(C(=S)Nc2ccc(Br)cc2Cl)CC1,"inconclusive: 35.5 µM [inhibitor, single point]"
21,Cc1cc(-c2ccc(C)c(S(=O)(=O)N3c4ccccc4CC3C)c2)on1 (stereo not given),"inconclusive: 0.562 µM [inhibitor, full curve, poor fit]"

# Three of the compounds above, with tabs.
row	SMILES	Potency
3	CCn1c(NCc2cccs2)nc2ccccc21	inactive
4	CCCCc1nc2ccccc2n1CC(=O)N(COCC)c1c(C)cccc1CC	inconclusive: 2 µM [inhibitor, partial curve, poor fit]
11	CCNc1sc(C(=O)c2cccs2)c(N)c1-c1nc2ccccc2s1	inconclusive: 35.5 µM [inhibitor, single point]
